In PMC8864472:
Results are given in words; binding and its absence hold for the method and conditions named. Binding seen in cells or lysates may run through a third protein. Some results given as binding are weak or reduced against the parent protein; the word gives no strength.

The chains behind the UniProt entries cited, without tags or fusion partners.
UniProt O14939: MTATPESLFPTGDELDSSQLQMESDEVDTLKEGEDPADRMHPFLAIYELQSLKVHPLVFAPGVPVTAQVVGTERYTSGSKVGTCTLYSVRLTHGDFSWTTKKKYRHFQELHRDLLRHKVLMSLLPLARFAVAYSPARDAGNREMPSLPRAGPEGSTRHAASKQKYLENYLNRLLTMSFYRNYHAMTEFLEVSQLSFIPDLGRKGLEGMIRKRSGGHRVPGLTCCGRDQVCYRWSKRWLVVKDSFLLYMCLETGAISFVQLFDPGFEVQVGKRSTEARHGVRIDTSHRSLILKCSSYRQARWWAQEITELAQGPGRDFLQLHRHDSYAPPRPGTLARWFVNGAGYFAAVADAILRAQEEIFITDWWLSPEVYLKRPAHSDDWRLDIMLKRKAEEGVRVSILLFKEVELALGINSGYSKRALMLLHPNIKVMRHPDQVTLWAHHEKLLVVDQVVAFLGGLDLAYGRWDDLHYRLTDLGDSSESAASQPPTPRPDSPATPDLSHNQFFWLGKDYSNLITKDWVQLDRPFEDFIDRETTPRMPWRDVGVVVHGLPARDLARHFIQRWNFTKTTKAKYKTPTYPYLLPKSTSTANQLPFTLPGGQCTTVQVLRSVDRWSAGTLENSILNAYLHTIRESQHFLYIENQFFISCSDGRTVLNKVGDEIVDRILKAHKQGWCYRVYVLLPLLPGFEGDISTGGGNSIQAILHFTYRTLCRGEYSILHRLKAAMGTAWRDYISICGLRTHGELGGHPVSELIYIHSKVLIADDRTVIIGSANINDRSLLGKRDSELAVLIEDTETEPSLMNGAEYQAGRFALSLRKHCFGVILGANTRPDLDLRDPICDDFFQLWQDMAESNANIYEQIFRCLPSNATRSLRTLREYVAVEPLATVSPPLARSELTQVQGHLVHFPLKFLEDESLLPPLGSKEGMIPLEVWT

Assays:
Test in all cases: pull-down; HEK293T cells transfected with constructs of both tagged proteins; pull-down with S protein beads; Western blot
PLD2 (human) = PLD2 (human) (UniProt O14939)
PLD5 (human) = biological target: T1, PLD5 (human) (UniProt Q8N7P1)
T1 sequence: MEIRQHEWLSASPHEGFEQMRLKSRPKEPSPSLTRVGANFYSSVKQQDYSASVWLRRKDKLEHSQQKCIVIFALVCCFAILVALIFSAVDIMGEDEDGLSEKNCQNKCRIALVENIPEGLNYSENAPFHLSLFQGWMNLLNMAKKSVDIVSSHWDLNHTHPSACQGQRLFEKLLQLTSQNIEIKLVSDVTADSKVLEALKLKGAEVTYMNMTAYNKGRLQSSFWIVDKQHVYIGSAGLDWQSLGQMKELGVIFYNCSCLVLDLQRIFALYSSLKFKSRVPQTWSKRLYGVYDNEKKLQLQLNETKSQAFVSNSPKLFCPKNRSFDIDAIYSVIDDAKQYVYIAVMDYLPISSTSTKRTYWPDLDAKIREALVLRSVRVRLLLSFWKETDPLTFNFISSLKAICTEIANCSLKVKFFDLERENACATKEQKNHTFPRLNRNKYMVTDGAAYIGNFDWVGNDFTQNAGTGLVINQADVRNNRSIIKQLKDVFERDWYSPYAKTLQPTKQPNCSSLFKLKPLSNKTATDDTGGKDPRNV

phospholipase D1 (human) = biological target: T2, phospholipase D1 (human) (UniProt Q13393)
T2 sequence: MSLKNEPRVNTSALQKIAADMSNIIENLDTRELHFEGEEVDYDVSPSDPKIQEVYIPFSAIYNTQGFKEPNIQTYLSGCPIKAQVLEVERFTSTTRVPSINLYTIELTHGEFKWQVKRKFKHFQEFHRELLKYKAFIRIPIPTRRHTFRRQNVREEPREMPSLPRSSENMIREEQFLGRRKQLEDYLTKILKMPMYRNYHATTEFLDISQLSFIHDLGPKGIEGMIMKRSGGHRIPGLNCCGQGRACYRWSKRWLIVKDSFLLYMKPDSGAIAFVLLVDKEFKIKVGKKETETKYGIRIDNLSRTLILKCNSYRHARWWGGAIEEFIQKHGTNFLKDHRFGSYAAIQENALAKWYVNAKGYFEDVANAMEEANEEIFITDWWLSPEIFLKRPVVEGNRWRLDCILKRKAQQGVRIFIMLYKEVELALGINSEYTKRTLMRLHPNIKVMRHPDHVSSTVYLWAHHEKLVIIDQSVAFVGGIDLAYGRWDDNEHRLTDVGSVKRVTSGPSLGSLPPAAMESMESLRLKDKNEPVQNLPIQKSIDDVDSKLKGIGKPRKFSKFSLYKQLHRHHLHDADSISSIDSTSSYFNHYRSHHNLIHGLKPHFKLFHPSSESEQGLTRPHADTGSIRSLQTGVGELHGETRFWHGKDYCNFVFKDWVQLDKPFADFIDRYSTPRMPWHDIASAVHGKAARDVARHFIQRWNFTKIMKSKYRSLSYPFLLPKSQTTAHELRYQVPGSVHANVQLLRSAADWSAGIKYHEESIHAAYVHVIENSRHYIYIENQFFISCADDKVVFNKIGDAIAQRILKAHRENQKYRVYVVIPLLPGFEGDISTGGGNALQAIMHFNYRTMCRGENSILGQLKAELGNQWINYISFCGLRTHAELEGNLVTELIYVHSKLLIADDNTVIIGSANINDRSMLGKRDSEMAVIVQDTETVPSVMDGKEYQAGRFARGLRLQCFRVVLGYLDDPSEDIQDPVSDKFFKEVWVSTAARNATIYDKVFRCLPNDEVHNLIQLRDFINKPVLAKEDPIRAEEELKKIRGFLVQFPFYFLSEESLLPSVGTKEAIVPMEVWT

- binding (phospholipase D1 (human)): binds
B1: ANKMY2 (protein, UniProt Q8IV38 1-441)
chain: MVHIKKGELTQEEKELLEVIGKGTVQEAGTLLSSKNVRVNCLDENGMTPLMHAAYKGKLDMCKLLLRHGADVNCHQHEHGYTALMFAALSGNKDITWVMLEAGAETDVVNSVGRTAAQMAAFVGQHDCVTIINNFFPRERLDYYTKPQGLDKEPKLPPKLAGPLHKIITTTNLHPVKIVMLVNENPLLTEEAALNKCYRVMDLICEKCMKQRDMNEVLAMKMHYISCIFQKCINFLKDGENKLDTLIKSLLKGRASDGFPVYQEKIIRESIRKFPYCEATLLQQLVRSIAPVEIGSDPTAFSVLTQAITGQVGFVDVEFCTTCGEKGASKRCSVCKMVIYCDQTCQKTHWFTHKKICKNLKDIYEKQQLEAAKEKRQEENHGKLDVNSNCVNEEQPEAEVGISQKDSNPEDSGEGKKESLESEAELEGLQDAPAGPQVSEE
- binding (PLD2 (human)): binds
- binding (PLD5 (human)): binds
